Test results published in patent publication US20250283871A1, “COMPOSITIONS AND METHODS FOR MODULATING THE INTERACTION BETWEEN SS18-SSX FUSION ONCOPROTEIN AND NUCLEOSOMES” (Dana-Farber Cancer Institute, Inc., priority 2020, published 2025).

Tested on: BAF complex subunits and histone proteins
Experiment: Mass spectrometry proteomics of purified HA-SS18 WT and HA-SS18-SSX1 complexes (Tables 5A-5E)
Set-up: species or system human
Conditions: HEK-293T; for Total (total peptides) / Unique (unique peptides): HA-SS18SSX1 purification, NE (soluble nuclear extract) fraction, peptides per identified protein
[1] = HA-SS18WT_NE_peptides: HA-SS18 WT complexes purified from nuclear extract (NE), label = protein identified (Gene Symbol)
[2] = HA-SS18WT_NE_peptides: proteins co-purified with HA-SS18 WT from nuclear extract (NE)

B1: IDH2 (protein, UniProt P48735 40-452, looked up)
Isocitrate dehydrogenase …: ADKRIKVAKPVVEMDGDEMTRIIWQFIKEKLILPHVDIQLKYFDLGLPNRDQTDDQVTIDSALATQKYSVAVKCATITPDEARVEEFKLKKMWKSPNGTIRNILGGTVFREPIICKNIPRLVPGWTKPITIGRHAHGDQYKATDFVADRAGTFKMVFTPKDGSGVKEWEVYNFPAGGVGMGMYNTDESISGFAHSCFQYAIQKKWPLYMSTKNTILKAYDGRFKDIFQEIFDKHYKTDFDKNKIWYEHRLIDDMVAQVLKSSGGFVWACKNYDGDVQSDILAQGFGSLGLMTSVLVCPDGKTIEAEAAHGTVTRHYREHQKGRPTSTNPIASIFAWTRGLEHRGKLDGNQDLIRFAQMLEKVCVETVESGAMTKDLAGCIHGLSNVKLNEHFLNTTDFLDTIKSNLDRALGRQ
Question: Which results are given for B1?
Answer: Total (total peptides): 4; Unique (unique peptides): 3; Total (peptides) [1]: 3; Unique (peptides) [1]: 3

B2: IKZF4 (protein, UniProt Q9H2S9 1-585, looked up)
Zinc finger protein Eos: MHTPPALPRRFQGGGRVRTPGSHRQGKDNLERDPSGGCVPDFLPQAQDSNHFIMESLFCESSGDSSLEKEFLGAPVGPSVSTPNSQHSSPSRSLSANSIKVEMYSDEESSRLLGPDERLLEKDDSVIVEDSLSEPLGYCDGSGPEPHSPGGIRLPNGKLKCDVCGMVCIGPNVLMVHKRSHTGERPFHCNQCGASFTQKGNLLRHIKLHSGEKPFKCPFCNYACRRRDALTGHLRTHSVSSPTVGKPYKCNYCGRSYKQQSTLEEHKERCHNYLQSLSTEAQALAGQPGDEIRDLEMVPDSMLHSSSERPTFIDRLANSLTKRKRSTPQKFVGEKQMRFSLSDLPYDVNSGGYEKDVELVAHHSLEPGFGSSLAFVGAEHLRPLRLPPTNCISELTPVISSVYTQMQPLPGRLELPGSREAGEGPEDLADGGPLLYRPRGPLTDPGASPSNGCQDSTDTESNHEDRVAGVVSLPQGPPPQPPPTIVVGRHSPAYAKEDPKPQEGLLRGTPGPSKEVLRVVGESGEPVKAFKCEHCRILFLDHVMFTIHMGCHGFRDPFECNICGYHSQDRYEFSSHIVRGEHKVG
Question: Which results are given for B2?
Answer: Total (total peptides): 4; Unique (unique peptides): 3; Total (peptides) [1]: 3; Unique (peptides) [1]: 3

B3: SRPRB (protein, UniProt Q9Y5M8 1-271, looked up)
Signal recognition particle …: MASADSRRVADGGGAGGTFQPYLDTLRQELQQTDPTLLSVVVAVLAVLLTLVFWKLIRSRRSSQRAVLLVGLCDSGKTLLFVRLLTGLYRDTQTSITDSCAVYRVNNNRGNSLTLIDLPGHESLRLQFLERFKSSARAIVFVVDSAAFQREVKDVAEFLYQVLIDSMGLKNTPSFLIACNKQDIAMAKSAKLIQQQLEKELNTLRVTRSAAPSTLDSSSTAPAQLGKKGKEFEFSQLPLKVEFLECSAKGGRGDVGSADIQDLEKWLAKIA
Question: For B3, which “Total (total peptides)” value is on record?
Answer: 3

Question: And the “Unique (unique peptides)” value?
Answer: 3

Question: And the “Total (peptides)” value [1]?
Answer: 3

Question: What about the “Unique (peptides)” value [1] of the same molecule?
Answer: 3

B4: TAMM41 (protein, UniProt Q96BW9 1-452, looked up)
Phosphatidate …: MALQTLQSSWVTFRKILSHFPEELSLAFVYGSGVYRQAGPSSDQKNAMLDFVFTVDDPVAWHSKNLKKNWSHYSFLKVLGPKIITSIQNNYGAGVYYNSLIMCNGRLIKYGVISTNVLIEDLLNWNNLYIAGRLQKPVKIISVNEDVTLRSALDRNLKSAVTAAFLMLPESFSEEDLFIEIAGLSYSGDFRMVVGEDKTKVLNIVKPNIAHFRELYGSILQENPQVVYKSQQGWLEIDKSPEGQFTQLMTLPKTLQQQINHIMDPPGKNRDVEETLFQVAHDPDCGDVVRLGLSAIVRPSSIRQSTKGIFTAGKSFGNPCVTYLLTEWLPHSWLQCKALYLLGACEMLSFDGHKLGYCSKVQTGITAAEPGGRTMSDHWQCCWKLYCPSEFSETLPVCRVFPSYCFIYQSYRCIGLQKQQHLCSPSSSPSLRQLLPSVLVGYFCCYCHFSKW
Question: Which “Total (total peptides)” value does the source give for B4 here?
Answer: 3

Question: What about the “Unique (unique peptides)” value of the same molecule?
Answer: 3

Question: What about the “Total (peptides)” value [1] of the same molecule?
Answer: 4

Question: What about the “Unique (peptides)” value [1] of the same molecule?
Answer: 4

B5: SLC3A2 (protein, UniProt P08195 1-630, looked up)
Amino acid transporter heavy …: MELQPPEASIAVVSIPRQLPGSHSEAGVQGLSAGDDSELGSHCVAQTGLELLASGDPLPSASQNAEMIETGSDCVTQAGLQLLASSDPPALASKNAEVTGTMSQDTEVDMKEVELNELEPEKQPMNAASGAAMSLAGAEKNGLVKIKVAEDEAEAAAAAKFTGLSKEELLKVAGSPGWVRTRWALLLLFWLGWLGMLAGAVVIIVRAPRCRELPAQKWWHTGALYRIGDLQAFQGHGAGNLAGLKGRLDYLSSLKVKGLVLGPIHKNQKDDVAQTDLLQIDPNFGSKEDFDSLLQSAKKKSIRVILDLTPNYRGENSWFSTQVDTVATKVKDALEFWLQAGVDGFQVRDIENLKDASSFLAEWQNITKGFSEDRLLIAGTNSSDLQQILSLLESNKDLLLTSSYLSDSGSTGEHTKSLVTQYLNATGNRWCSWSLSQARLLTSFLPAQLLRLYQLMLFTLPGTPVFSYGDEIGLDAAALPGQPMEAPVMLWDESSFPDIPGAVSANMTVKGQSEDPGSLLSLFRRLSDQRSKERSLLHGDFHAFSAGPGLFSYIRHWDQNERFLVVLNFGDVGLSAGLQASDLPASASLPAKADLLLSTQPGREEGSPLELERLKLEPHEGLLLRFPYAA
Question: With B5 as the molecule, how does the “Total (total peptides)” value read?
Answer: 3

Question: What about the “Unique (unique peptides)” value of the same molecule?
Answer: 3

Question: And the “Total (peptides)” value [2]?
Answer: 2

Question: And the “Unique (peptides)” value [2]?
Answer: 2

B6: SLIT2 (protein, UniProt O94813 31-1529, looked up)
Slit homolog 2 protein: QCSCSGSTVDCHGLALRSVPRNIPRNTERLDLNGNNITRITKTDFAGLRHLRVLQLMENKISTIERGAFQDLKELERLRLNRNHLQLFPELLFLGTAKLYRLDLSENQIQAIPRKAFRGAVDIKNLQLDYNQISCIEDGAFRALRDLEVLTLNNNNITRLSVASFNHMPKLRTFRLHSNNLYCDCHLAWLSDWLRQRPRVGLYTQCMGPSHLRGHNVAEVQKREFVCSGHQSFMAPSCSVLHCPAACTCSNNIVDCRGKGLTEIPTNLPETITEIRLEQNTIKVIPPGAFSPYKKLRRIDLSNNQISELAPDAFQGLRSLNSLVLYGNKITELPKSLFEGLFSLQLLLLNANKINCLRVDAFQDLHNLNLLSLYDNKLQTIAKGTFSPLRAIQTMHLAQNPFICDCHLKWLADYLHTNPIETSGARCTSPRRLANKRIGQIKSKKFRCSAKEQYFIPGTEDYRSKLSGDCFADLACPEKCRCEGTTVDCSNQKLNKIPEHIPQYTAELRLNNNEFTVLEATGIFKKLPQLRKINFSNNKITDIEEGAFEGASGVNEILLTSNRLENVQHKMFKGLESLKTLMLRSNRITCVGNDSFIGLSSVRLLSLYDNQITTVAPGAFDTLHSLSTLNLLANPFNCNCYLAWLGEWLRKKRIVTGNPRCQKPYFLKEIPIQDVAIQDFTCDDGNDDNSCSPLSRCPTECTCLDTVVRCSNKGLKVLPKGIPRDVTELYLDGNQFTLVPKELSNYKHLTLIDLSNNRISTLSNQSFSNMTQLLTLILSYNRLRCIPPRTFDGLKSLRLLSLHGNDISVVPEGAFNDLSALSHLAIGANPLYCDCNMQWLSDWVKSEYKEPGIARCAGPGEMADKLLLTTPSKKFTCQGPVDVNILAKCNPCLSNPCKNDGTCNSDPVDFYRCTCPYGFKGQDCDVPIHACISNPCKHGGTCHLKEGEEDGFWCICADGFEGENCEVNVDDCEDNDCENNSTCVDGINNYTCLCPPEYTGELCEEKLDFCAQDLNPCQHDSKCILTPKGFKCDCTPGYVGEHCDIDFDDCQDNKCKNGAHCTDAVNGYTCICPEGYSGLFCEFSPPMVLPRTSPCDNFDCQNGAQCIVRINEPICQCLPGYQGEKCEKLVSVNFINKESYLQIPSAKVRPQTNITLQIATDEDSGILLYKGDKDHIAVELYRGRVRASYDTGSHPASAIYSVETINDGNFHIVELLALDQSLSLSVDGGNPKIITNLSKQSTLNFDSPLYVGGMPGKSNVASLRQAPGQNGTSFHGCIRNLYINSELQDFQKVPMQTGILPGCEPCHKKVCAHGTCQPSSQAGFTCECQEGWMGPLCDQRTNDPCLGNKCVHGTCLPINAFSYSCKCLEGHGGVLCDEEEDLFNPCQAIKCKHGKCRLSGLGQPYCECSSGYTGDSCDREISCRGERIRDYYQKQQGYAACQTTKKVSRLECRGGCAGGQCCGPLRSKRRKYSFECTDGSSFVDEVEKVVKCGCTRCVS
Question: B6 was tested. Which “Total (total peptides)” value did it give?
Answer: 3

Question: What about the “Unique (unique peptides)” value of the same molecule?
Answer: 3

Question: And the “Total (peptides)” value [1]?
Answer: 3

Question: What about the “Unique (peptides)” value [1] of the same molecule?
Answer: 3
